Data set [1] in a line: Cytotoxicity against Parkinson's disease patient derived human ONS cells assessed as effect on cell morphology parameters at 10 uM after 24 hrs by DAPI staining based fluorescence assay.
A short description of data set [2]: Cytotoxicity against Parkinson's disease patient derived human ONS cells assessed as effect on nucleus morphology parameters at 10 uM after 24 hrs by DAPI staining based fluorescence assay.

In the case of `COc1c(O)cc2c(c1OC)-c1ccc(OC)c(=O)cc1[C@@H](NC(C)=O)CC2` [3-DESMETHYLCOLCHICIN], the Activity entry in data set [1] and in data set [2] was “Non-Toxic” in each case.
